PubChem BioAssay AID1259254, NCATS – 2017

- Test: 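Genome-wide screen for genes that prevent DNA re-replication in cancer cells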 (primary screen)
- System: human HCT116 colorectal cancer cells
- Reagents: single siRNA against human genes
- Timing: 3 days
- Measurement: 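Imaged Hoechst DNA stain sorts each cell into a cycle phase by DNA amount; per plate, G2 fraction set to 0% for non-targeting and 100% for GMNN siRNA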
- Direction: G2 robust z-score: higher = more G2 cells, more excess DNA replication
- Active means: 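An siRNA counts as active if its G2 robust z-score lies at least 5 MADs above the screen median; here such calls match roughly 38% of GMNN control or more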
In all, the deposit lists about 59,000 reagents; shown is a random part of them. About 1,550 of them (2.6%) were called active. 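G2 share is only a proxy for re-replication; each gene was hit by three separate siRNAs, and active genes were retested.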 A number with no mark means an inactive call. The numbers tell different reagents against one gene apart. Further read-outs or replicates are left out here. Not stated in the record: the amount of reagent.

Knock-down of SGSM3 (small G protein signaling modulator 3) #1 gave: G2 robust z-score -0.727.
With knock-down of SGSM3 (small G protein signaling modulator 3) #2 the results were G2 robust z-score 1.41.
Depletion of SGSM3 (small G protein signaling modulator 3) #3 resulted in: G2 robust z-score 2.01.
For IL13RA2 (interleukin 13 receptor subunit alpha 2) #1, the entry reads G2 robust z-score -0.159.
After knock-down of IL13RA2 (interleukin 13 receptor subunit alpha 2) #2, the screen gave G2 robust z-score -0.0265.
Knock-down of IL13RA2 (interleukin 13 receptor subunit alpha 2) #3 came out at: G2 robust z-score -0.224.
For RNF123 (ring finger protein 123) #1, the entry reads G2 robust z-score -0.793.
After knock-down of RNF123 (ring finger protein 123) #2, the screen gave G2 robust z-score -0.315.
For RNF123 (ring finger protein 123) #3 the deposit lists G2 robust z-score -0.778.
Against SUMO3 (small ubiquitin like modifier 3) #1, the values are G2 robust z-score 0.325.
SUMO3 (small ubiquitin like modifier 3) #2 scored G2 robust z-score 3.33.
SUMO3 (small ubiquitin like modifier 3) #3 gave G2 robust z-score 1.36.
For TEDC2-AS1 (TEDC2 antisense RNA 1) #1 the deposit lists G2 robust z-score -0.299.
TEDC2-AS1 (TEDC2 antisense RNA 1) #2 showed G2 robust z-score -0.0678.
Against TEDC2-AS1 (TEDC2 antisense RNA 1) #3 the deposit lists G2 robust z-score -0.399.
Against ADGRG5 (adhesion G protein-coupled receptor G5) #1 the deposit lists G2 robust z-score 3.84.
Against ADGRG5 (adhesion G protein-coupled receptor G5) #2 the deposit lists G2 robust z-score -0.506.
After knock-down of ADGRG5 (adhesion G protein-coupled receptor G5) #3 the results were G2 robust z-score -0.371.
After knock-down of NHERF1 (NHERF family PDZ scaffold protein 1) #1, the screen gave G2 robust z-score -0.468.
For NHERF1 (NHERF family PDZ scaffold protein 1) #2, the values are G2 robust z-score -0.157.
NHERF1 (NHERF family PDZ scaffold protein 1) #3 scored G2 robust z-score -0.932.
Against FMNL1 (formin like 1) #1, the entry reads G2 robust z-score 2.68.
FMNL1 (formin like 1) #2 gave G2 robust z-score 1.78.
Depletion of FMNL1 (formin like 1) #3 resulted in: G2 robust z-score -0.269.

Part of the list above, set out differently:
| Target gene | reagent no. | G2 robust z-score |
| --- | --- | --- |
| SUMO3 (small ubiquitin like modifier 3) | 1 | 0.325 |
| SUMO3 (small ubiquitin like modifier 3) | 2 | 3.33 |
| SUMO3 (small ubiquitin like modifier 3) | 3 | 1.36 |
